Experimental data: patent US12084680B2, “Methods for efficient derivation of human motor neurons from diverse spinal regions” (Wisconsin Alumni Research Foundation, priority 2016, dated 2024)
At least one compound was matched to its structure with a doubt left.

Legend:
[1] = test system: H9 ishcat2 hESC line; test: Doxycycline-inducible shRNA knockdown of β-catenin (CTNNB1) during motor neuron differentiation; format: cell-based, human; conditions: doxycycline 2 μg/mL
Description: In the ventral neural tube, SHH signaling generates OLIG2^+ motor neuron progenitors that subsequently mature into post-mitotic ISL1^+ and/or HB9^+ motor neurons. To probe the role of Wnt/β-catenin signaling during this process in vitro, we utilized the H9 ishcat2 hESC line, which harbors a doxycycline-inducible shRNA against CTNNB1.
Similarly, we induced β-catenin knockdown while differentiating the hESCs into motor neurons via E6 neural induction with RA (1 μM), purmorphamine (PM, a small molecule agonist of sonic hedgehog signaling; 100 nM), and neurotrophic factor treatment, as previously described (FIG. 3A).
NKX6.1 is the earliest expressed marker in the motor neuron development cascade in vivo, so we examined its expression in response to Wnt/β-catenin, RA, and SHH signaling during hPSC motor neuron differentiation. H9 hESCs were differentiated in E6 medium for 2 days to initiate neural fate acquisition34 and then treated with combinations of RA, purmorphamine (PM, a small molecule agonist of SHH signaling), and CHIR for 24 h (FIG. 4A). […] Using the H9 ishcat2 line, we observed that CHIR-mediated induction of NKX6.1 was β-catenin-dependent, as the optimal 3 days of shRNA-mediated CTNNB1 knockdown upstream of CHIR treatment was required to maximally reduce NKX6.1 induction to 44±1% (FIG. 4E). […]

[2] = test system: H9 hESCs; test: NKX6.1 induction in neurally differentiating H9 hESCs after 24 h treatment (flow cytometry, RT-PCR, day 3); format: cell-based, human; conditions: combined RA 1 μM and PM 1 μM, no CHIR
Description: NKX6.1 is the earliest expressed marker in the motor neuron development cascade in vivo, so we examined its expression in response to Wnt/β-catenin, RA, and SHH signaling during hPSC motor neuron differentiation. H9 hESCs were differentiated in E6 medium for 2 days to initiate neural fate acquisition34 and then treated with combinations of RA, purmorphamine (PM, a small molecule agonist of SHH signaling), and CHIR for 24 h (FIG. 4A). […] Using the H9 ishcat2 line, we observed that CHIR-mediated induction of NKX6.1 was β-catenin-dependent, as the optimal 3 days of shRNA-mediated CTNNB1 knockdown upstream of CHIR treatment was required to maximally reduce NKX6.1 induction to 44±1% (FIG. 4E). The correlation between NKX6.1 knockdown and days of doxycycline treatment was presumably due to the time delay for shRNA synthesis and subsequent gene knockdown in Tet-on systems. […] Exogenously added WNT3A (200 ng/mL) could also induce NKX6.1 expression (60±14%) (FIG. 4G), providing further evidence for the involvement of Wnt/β-catenin signaling in this process. In contrast, simultaneous treatment with CHIR and BMP4 (200 ng/mL), a dorsal patterning factor, reduced the expression of NKX6.1 from 91±1% to 68±2% (FIG. 4H). […]

Structure (SMILES)	neural induction (PAX6 and SOX2 expression) ([1]; day 6)	expression of NKX6.1, OLIG2, HB9, ISL1 and SMI32 ([1]; day 16)	NKX6.1 induction within 24 h [2]
C[C@H]1c2cccc(O)c2C(=O)C2=C(O)[C@]3(O)C(=O)C(C(N)=O)=C(O)[C@@H](N(C)C)[C@@H]3[C@@H](O)[C@@H]21 [Doxycycline]	did not affect neural induction	markedly decreased expression	–
CC1=C(/C=C/C(C)=C/C=C/C(C)=C/C(=O)O)C(C)(C)CCC1 [RA, Retinoic acid]	–	–	did not induce NKX6.1
